Substitutions are numbered along the chain they refer to. These are yes or no findings as the source states them, for the method shown. Binding calls can cover weak binding; strength is not graded here. Each block holds one binder with its values, some of them ahead of it.
Tests used:
[1] = molecular target: cynomolgus Gal10-His (WGS isoform) (cynomolgus); experiment: SPR Biacore 3000, two concentrations on captured cynomolgus Gal10-His
[2] = molecular target: cynomolgus Gal10-His (WGS isoform) (cynomolgus); experiment: SPR, summary of Example 4
[3] = molecular target: cynomolgus Gal10-His (WGS isoform) (cynomolgus); experiment: SPR Biacore 3000 on captured cynomolgus Gal10-His
[4] = molecular target: cynomolgus Gal10-His (WGS isoform) (cynomolgus); experiment: conclusion from the examples
[5] = molecular target: cynomolgus Gal10-His (WGS isoform) (cynomolgus); experiment: Cyno cross-reactivity, overview table

binding [1]: binds
B1: g7B07 (human Fab) (Fab, V domains shown)
VH: EVQLLESGGGLVQPGGSLRLSCAASGFTFRSYDMSWVRQAPGKGLEWVSAIKNGGGITYYADSVKGRFTISRDNSKNTLYLQMNSLRAEDTAVYYCATTHGIGTLGFGSWGQGTLVTVSS
VL: SYELTQPLSVSVALGQTARITCDGNNIGSKSAQWYQQKPGQAPVLVIYADEYRPEGIPERFSGSNSGNTATLTISRAQAGDEADYYCQVWDGSAAVFGGGTQLTVL

binding [2]: binds | binding [3]: binds
B2: g20H09 (Fab) (Fab, V domains shown)
VH: EVQLLESGGGLVQPGGSLRLSCAASGFTFRSYDMSWVRQAPGKGLEWVSAIKWHRITYYADSVKGRFTISRDNSKNTLYLQMNSLRAEDTAVYYCATTHGIGTLGFGSWGQGTLVTVSS
VL: B1 VL

binding [1]: binds
B3: g7B07_N53A (human Fab) (Fab, V domains shown)
VH: B1 VH with N53A
VL: B1 VL

binding [2]: binds | binding [4]: binds | binding [5]: binds | binding [3]: binds
B4: g24F02_N53A (human Fab) (Fab, V domains shown)
VH: EVQLLESGGGLVQPGGSLRLSCAASGFTFSSYAMSWVRQAPGKGLEWVSAINAGGGSTSYADSVKGRFTISRDNSKNTLYLQMNSLRAEDTAVYYCAKGLRVGVLGFDYWGQGTLVTVSS
VL: B1 VL

binding [3]: binds
B5: g24F02 (human Fab) (Fab, V domains shown)
VH: B4 VH with A53N
VL: B1 VL

binding [2]: binds | binding [5]: binds | binding [3]: binds
B6: g23H09 (Fab) (Fab, V domains shown)
VH: B1 VH with K52A, N53Q, G54F, G55Q, G56H, I57W
VL: B1 VL
